These are yes or no findings as the source states them, for the method shown. Binding seen in cells or lysates may run through a third protein. Here binding means that the protein was enriched with, or labelled near, the bait; the list need not be complete. Tags and fused reporters may be left off the sequences shown.
T1: NBR1-GFP (Arabidopsis thaliana) (UniProt Q9SB64)
T1 sequence: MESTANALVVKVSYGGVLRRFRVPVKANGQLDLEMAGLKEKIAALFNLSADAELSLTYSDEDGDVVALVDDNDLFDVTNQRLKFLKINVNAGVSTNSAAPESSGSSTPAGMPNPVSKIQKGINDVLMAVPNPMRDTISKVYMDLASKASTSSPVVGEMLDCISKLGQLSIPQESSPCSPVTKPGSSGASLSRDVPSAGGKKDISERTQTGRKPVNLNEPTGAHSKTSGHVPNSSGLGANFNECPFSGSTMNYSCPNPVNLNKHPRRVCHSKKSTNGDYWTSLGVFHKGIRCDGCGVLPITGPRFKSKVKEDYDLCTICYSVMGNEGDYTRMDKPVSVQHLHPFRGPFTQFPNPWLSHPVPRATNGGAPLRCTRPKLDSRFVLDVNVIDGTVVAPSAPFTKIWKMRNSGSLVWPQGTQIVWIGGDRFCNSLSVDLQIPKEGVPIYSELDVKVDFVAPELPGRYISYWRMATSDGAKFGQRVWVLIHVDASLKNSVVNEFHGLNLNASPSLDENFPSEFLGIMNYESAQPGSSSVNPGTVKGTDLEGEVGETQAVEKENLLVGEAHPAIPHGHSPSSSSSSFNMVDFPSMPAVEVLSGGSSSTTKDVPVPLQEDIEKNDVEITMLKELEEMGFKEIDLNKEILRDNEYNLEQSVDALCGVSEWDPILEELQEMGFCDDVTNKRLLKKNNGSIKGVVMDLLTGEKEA

Amino acid sequences for entries named in this document (tags omitted).
UniProt Q38931: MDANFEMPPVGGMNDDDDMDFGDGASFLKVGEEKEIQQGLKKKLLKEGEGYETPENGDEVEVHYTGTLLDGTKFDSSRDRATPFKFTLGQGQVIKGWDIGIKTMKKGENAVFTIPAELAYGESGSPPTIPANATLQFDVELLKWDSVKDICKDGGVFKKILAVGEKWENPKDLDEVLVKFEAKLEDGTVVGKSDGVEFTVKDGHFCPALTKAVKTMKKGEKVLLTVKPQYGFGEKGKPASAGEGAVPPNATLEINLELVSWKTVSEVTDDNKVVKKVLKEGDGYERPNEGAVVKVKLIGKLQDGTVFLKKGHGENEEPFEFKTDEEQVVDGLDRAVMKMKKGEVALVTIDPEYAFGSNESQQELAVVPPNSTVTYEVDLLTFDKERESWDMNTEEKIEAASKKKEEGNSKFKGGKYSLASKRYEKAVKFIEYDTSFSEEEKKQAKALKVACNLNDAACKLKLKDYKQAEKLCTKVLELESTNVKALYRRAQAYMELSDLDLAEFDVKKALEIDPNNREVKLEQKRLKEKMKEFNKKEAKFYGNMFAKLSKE


Molecular target: T1, NBR1-GFP (Arabidopsis thaliana)
Assay: affinity purification with mass spectrometry; anti-GFP antibody microbeads on total extracts of primed, cross-linked pNBR1:NBR1-GFP and 35S:GFP (control) seedlings, day 1 of the HS recovery phase; 50 mM Tris-HCl pH 7.5, 150 mM NaCl, 1% Tween-20; overnight at 4°C; LC-MS/MS; named hits are those also more abundant in nbr1-2

binding | Molecule
binds | ROTAMASE 1 (ROF1), endogenous (from UniProt Q38931 1-551)
binds | RPT1A (REGULATORY PARTICLE TRIPLE-A 1A) (protein, UniProt Q9SSB5 1-426) MVRDIEDEIRDEKNPRPLDEDDIALLKTYGLGPYSAPIKKVEKEIKDLAKKINDLCGIKESDTGLAPPSQWDLVSDKQMMQEEQPLQVARCTKIISPNTEDAKYVINVKQIAKFVVGLGDKVSPTDIEEGMRVGVDRNKYQIQIPLPPKIDPSVTMMTVEEKPDVTYNDVGGCKEQIEKMREVVELPMLHPEKFVKLGIDPPKGVLCYGPPGTGKTLLARAVANRTDACFIRVIGSELVQKYVGEGARMVRELFQMARSKKACIVFFDEVDAIGGARFDDGVGGDNEVQRTMLEIVNQLDGFDARGNIKVLMATNRPDTLDPALLRPGRLDRKVEFGLPDLESRTQIFKIHTRTMNCERDIRFELLARLCPNSTGADIRSVCTEAGMYAIRARRKTVTEKDFLDAVNKVIKGYQKFSATPKYMVYN
binds | RSR4 (ARABIDOPSIS THALIANA PYRIDOXINE BIO… 1.3) (protein, UniProt Q8L940 1-309) MEGTGVVAVYGNGAITEAKKSPFSVKVGLAQMLRGGVIMDVVNAEQARIAEEAGACAVMALERVPADIRAQGGVARMSDPQMIKEIKQAVTIPVMAKARIGHFVEAQILEAIGIDYIDESEVLTLADEDHHINKHNFRIPFVCGCRNLGEALRRIREGAAMIRTKGEAGTGNIIEAVRHVRSVNGDIRVLRNMDDDEVFTFAKKLAAPYDLVMQTKQLGRLPVVQFAAGGVATPADAALMMQLGCDGVFVGSGIFKSGDPARRARAIVQAVTHYSDPEMLVEVSCGLGEAMVGINLNDEKVERFANRSE

The remaining lines, values behind:

Molecule | binding
RPS10B (40S RIBOSOMAL PROTEIN) (from UniProt Q9FFS8 1-180) | binds
SAM-2 (S-ADENOSYLMETHIONINE … 2) (from UniProt P17562 1-393) | binds
RP40 (40S RIBOSOMAL PROTEIN) | binds
GLN1-1 (ARABIDOPSIS GLUTAMINE SYNTHASE 1) (protein, UniProt Q56WN1 1-356) MSLVSDLINLNLSDSTDKIIAEYIWVGGSGMDMRSKARTLPGPVTDPSQLPKWNYDGSSTGQAPGEDSEVILYPQAIFKDPFRRGNNILVMCDAYTPAGEPIPTNKRHAAAKVFSNPDVAAEVPWYGIEQEYTLLQKDVKWPVGWPIGGYPGPQGPYYCGIGADKSFGRDVVDSHYKACLYAGINISGINGEVMPGQWEFQVGPAVGISAADEIWVARYILERITEIAGVVVSFDPKPIPGDWNGAGAHCNYSTKSMREEGGYEIIKKAIDKLGLRHKEHIAAYGEGNERRLTGHHETADINTFLWGVANRGASIRVGRDTEKEGKGYFEDRRPASNMDPYIVTSMIAETTILWNP | binds
CA2 (BETA CARBONIC … 2) (protein, UniProt P42737 72-331) RMGNESYEDAIEALKKLLIEKDDLKDVAAAKVKKITAELQAASSSDSKSFDPVERIKEGFVTFKKEKYETNPALYGELAKGQSPKYMVFACSDSRVCPSHVLDFHPGDAFVVRNIANMVPPFDKVKYAGVGAAIEYAVLHLKVENIVVIGHSACGGIKGLMSFPLDGNNSTDFIEDWVKICLPAKSKVLAESESSAFEDQCGRCEREAVNVSLANLLTYPFVREGVVKGTLALKGGYYDFVNGSFELWELQFGISPVHSI | binds
UXS3 (UDP-GLUCURONIC ACID DECARBOXYLASE 3) (protein, UniProt Q9FIE8 1-342) MAATSEKQNTTKPPPSPSPLRNSKFCQPNMRILISGGAGFIGSHLVDKLMENEKNEVVVADNYFTGSKENLKKWIGHPRFELIRHDVTEPLLIEVDRIYHLACPASPIFYKYNPVKTIKTNVIGTLNMLGLAKRVGARILLTSTSEVYGDPLIHPQPESYWGNVNPIGVRSCYDEGKRVAETLMFDYHRQHGIEIRIARIFNTYGPRMNIDDGRVVSNFIAQALRGEALTVQKPGTQTRSFCYVSDMVDGLIRLMEGNDTGPINIGNPGEFTMVELAETVKELINPSIEIKMVENTPDDPRQRKPDISKAKEVLGWEPKVKLREGLPLMEEDFRLRLNVPRN | binds
